# Test results reported in the supplement of paper PMC10849652.
# By UniProt entry, the sequences of proteins in these tests, tags left out. Where a name states a change or a piece, a line headed by the entry shows the natural chain unless it says otherwise.
# UniProt Q9UBX3: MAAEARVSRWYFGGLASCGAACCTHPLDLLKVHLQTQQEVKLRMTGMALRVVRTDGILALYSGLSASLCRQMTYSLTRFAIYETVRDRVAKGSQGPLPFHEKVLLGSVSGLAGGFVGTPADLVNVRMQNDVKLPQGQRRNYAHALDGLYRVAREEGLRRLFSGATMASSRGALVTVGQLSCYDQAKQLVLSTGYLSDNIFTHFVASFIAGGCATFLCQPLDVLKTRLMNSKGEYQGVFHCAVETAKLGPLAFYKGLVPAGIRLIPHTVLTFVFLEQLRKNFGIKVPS
# UniProt L0R6Q1: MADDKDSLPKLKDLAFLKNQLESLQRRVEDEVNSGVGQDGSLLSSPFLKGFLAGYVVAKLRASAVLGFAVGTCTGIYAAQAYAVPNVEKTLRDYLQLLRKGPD
# UniProt Q8WUX1, whole entry, looked up: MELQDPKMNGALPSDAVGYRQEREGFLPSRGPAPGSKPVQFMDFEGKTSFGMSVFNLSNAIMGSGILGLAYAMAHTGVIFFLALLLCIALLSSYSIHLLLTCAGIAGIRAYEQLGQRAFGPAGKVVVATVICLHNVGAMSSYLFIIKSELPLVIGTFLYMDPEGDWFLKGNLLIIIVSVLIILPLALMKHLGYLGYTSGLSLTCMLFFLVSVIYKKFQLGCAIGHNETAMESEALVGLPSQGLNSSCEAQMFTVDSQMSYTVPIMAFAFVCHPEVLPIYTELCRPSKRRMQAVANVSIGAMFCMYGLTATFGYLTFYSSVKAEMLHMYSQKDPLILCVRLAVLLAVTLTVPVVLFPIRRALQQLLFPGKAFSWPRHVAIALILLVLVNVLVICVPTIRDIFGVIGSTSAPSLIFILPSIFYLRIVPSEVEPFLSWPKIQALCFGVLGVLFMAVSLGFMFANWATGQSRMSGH
# UniProt P12236: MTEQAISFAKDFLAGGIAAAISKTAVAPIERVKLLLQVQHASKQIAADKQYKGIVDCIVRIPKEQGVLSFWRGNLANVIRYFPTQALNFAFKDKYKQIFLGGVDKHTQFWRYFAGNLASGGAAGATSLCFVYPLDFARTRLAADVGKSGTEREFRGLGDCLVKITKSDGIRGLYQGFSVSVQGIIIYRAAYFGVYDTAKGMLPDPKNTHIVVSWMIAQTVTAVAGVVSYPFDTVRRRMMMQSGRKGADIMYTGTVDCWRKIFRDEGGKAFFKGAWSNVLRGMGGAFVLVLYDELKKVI
# UniProt O43772: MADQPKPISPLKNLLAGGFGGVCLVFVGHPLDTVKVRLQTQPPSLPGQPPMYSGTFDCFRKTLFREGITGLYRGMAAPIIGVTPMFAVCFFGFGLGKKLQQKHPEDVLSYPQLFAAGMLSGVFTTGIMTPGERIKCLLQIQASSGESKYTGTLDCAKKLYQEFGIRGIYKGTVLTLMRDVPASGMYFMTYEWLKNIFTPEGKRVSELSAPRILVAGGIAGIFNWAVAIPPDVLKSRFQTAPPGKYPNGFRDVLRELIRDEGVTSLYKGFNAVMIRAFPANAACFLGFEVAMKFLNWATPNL
# UniProt Q9ULF5: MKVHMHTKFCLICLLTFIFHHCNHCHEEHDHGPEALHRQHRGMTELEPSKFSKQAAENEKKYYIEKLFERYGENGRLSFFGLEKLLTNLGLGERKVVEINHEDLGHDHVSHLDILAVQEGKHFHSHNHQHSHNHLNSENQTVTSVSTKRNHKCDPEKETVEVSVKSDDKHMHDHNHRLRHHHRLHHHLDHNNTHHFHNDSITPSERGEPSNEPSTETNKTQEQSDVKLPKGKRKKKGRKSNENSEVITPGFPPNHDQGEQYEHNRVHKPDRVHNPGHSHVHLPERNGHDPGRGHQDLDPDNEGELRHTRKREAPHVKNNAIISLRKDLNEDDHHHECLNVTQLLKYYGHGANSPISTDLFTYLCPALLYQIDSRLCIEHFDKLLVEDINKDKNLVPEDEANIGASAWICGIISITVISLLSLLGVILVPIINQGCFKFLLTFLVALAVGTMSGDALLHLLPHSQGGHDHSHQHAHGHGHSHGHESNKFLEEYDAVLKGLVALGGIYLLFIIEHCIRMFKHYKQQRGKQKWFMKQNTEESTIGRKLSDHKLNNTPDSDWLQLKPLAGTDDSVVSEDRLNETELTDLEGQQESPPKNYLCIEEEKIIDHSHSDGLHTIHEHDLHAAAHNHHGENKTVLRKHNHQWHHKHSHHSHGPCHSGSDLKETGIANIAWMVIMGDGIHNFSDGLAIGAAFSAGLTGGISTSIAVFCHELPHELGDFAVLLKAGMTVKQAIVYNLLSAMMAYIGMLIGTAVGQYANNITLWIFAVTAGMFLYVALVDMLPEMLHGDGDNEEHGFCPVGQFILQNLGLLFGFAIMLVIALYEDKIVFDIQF
# UniProt O75746: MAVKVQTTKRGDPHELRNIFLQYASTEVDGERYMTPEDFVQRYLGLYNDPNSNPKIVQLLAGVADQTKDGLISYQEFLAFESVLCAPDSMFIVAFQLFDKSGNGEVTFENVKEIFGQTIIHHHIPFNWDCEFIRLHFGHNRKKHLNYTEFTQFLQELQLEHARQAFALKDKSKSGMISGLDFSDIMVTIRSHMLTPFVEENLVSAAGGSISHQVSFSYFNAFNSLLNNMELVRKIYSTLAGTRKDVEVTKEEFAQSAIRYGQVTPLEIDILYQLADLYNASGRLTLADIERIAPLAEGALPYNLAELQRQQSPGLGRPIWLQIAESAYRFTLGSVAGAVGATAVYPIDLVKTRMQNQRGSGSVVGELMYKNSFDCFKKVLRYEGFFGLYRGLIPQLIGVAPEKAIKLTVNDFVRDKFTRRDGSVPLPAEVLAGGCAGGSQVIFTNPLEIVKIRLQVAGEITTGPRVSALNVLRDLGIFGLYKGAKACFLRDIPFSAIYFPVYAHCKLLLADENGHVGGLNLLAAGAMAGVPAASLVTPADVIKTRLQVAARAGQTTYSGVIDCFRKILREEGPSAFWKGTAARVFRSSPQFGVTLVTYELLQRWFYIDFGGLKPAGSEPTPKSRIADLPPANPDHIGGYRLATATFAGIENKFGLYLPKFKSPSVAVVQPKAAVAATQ
# UniProt Q8NBW4: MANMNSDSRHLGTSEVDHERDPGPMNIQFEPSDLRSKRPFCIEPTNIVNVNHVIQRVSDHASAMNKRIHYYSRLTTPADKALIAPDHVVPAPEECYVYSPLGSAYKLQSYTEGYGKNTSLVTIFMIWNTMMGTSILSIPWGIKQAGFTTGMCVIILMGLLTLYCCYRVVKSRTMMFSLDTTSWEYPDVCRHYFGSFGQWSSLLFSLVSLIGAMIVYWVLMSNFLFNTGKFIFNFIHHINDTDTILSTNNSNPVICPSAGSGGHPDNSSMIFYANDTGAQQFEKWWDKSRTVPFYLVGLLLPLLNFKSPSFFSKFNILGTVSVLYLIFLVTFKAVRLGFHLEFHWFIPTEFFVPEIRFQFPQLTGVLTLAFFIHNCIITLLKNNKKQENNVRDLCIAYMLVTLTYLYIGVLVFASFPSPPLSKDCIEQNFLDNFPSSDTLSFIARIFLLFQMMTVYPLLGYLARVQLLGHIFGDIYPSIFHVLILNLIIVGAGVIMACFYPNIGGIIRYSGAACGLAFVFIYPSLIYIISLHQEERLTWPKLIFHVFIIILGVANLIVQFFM
# UniProt Q6NUK1: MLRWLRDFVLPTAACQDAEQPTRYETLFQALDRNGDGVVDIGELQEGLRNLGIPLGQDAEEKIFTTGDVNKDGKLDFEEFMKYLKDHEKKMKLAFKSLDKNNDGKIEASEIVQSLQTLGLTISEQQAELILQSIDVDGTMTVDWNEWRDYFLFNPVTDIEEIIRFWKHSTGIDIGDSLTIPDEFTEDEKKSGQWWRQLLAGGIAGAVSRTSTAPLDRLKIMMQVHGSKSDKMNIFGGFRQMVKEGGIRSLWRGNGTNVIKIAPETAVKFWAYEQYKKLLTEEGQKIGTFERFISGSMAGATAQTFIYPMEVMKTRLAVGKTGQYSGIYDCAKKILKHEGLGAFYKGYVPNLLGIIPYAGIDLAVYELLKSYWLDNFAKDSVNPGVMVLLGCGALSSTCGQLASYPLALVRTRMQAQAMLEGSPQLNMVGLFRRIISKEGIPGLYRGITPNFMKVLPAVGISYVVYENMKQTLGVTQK
# UniProt P53007, whole entry, looked up: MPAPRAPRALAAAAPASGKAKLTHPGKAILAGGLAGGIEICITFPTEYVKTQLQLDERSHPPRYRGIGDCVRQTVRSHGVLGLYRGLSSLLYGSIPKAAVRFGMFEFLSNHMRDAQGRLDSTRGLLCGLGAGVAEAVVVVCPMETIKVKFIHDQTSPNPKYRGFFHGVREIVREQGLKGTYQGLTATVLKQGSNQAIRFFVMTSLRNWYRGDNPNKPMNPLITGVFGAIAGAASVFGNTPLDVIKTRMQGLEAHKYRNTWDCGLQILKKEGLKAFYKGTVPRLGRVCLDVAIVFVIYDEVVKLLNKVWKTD
# UniProt P78381: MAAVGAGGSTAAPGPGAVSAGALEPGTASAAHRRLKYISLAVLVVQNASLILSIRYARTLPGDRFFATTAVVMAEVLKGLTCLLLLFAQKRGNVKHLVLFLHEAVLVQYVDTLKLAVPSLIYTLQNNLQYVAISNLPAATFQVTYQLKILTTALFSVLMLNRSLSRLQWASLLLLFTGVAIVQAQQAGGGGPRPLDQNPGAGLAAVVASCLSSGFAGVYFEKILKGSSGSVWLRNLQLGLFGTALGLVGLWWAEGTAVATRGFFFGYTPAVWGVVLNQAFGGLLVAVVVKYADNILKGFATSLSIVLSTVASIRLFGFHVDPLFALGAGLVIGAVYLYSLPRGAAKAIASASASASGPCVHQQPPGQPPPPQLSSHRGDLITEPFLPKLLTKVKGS
# UniProt Q8TAD4: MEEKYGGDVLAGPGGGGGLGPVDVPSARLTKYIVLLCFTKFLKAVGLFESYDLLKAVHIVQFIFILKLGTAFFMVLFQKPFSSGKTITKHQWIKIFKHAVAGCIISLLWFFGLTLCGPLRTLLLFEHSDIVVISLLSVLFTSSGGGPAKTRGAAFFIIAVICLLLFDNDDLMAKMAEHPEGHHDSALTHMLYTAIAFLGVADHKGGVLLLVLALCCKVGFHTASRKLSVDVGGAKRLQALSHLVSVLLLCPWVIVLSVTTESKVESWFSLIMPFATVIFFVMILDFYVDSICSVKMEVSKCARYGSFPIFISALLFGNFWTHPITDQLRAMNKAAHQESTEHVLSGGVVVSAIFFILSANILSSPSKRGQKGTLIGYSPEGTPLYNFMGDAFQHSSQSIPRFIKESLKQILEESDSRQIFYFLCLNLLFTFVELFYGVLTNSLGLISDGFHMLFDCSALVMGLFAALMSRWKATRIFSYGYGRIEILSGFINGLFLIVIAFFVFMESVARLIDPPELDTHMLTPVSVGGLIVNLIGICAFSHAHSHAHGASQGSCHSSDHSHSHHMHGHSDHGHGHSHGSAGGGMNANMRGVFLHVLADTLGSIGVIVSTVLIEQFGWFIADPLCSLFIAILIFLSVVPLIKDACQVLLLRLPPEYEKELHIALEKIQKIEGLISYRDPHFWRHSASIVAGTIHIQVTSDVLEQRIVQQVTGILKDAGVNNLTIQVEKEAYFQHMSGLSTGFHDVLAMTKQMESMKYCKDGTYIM
# UniProt Q6PML9: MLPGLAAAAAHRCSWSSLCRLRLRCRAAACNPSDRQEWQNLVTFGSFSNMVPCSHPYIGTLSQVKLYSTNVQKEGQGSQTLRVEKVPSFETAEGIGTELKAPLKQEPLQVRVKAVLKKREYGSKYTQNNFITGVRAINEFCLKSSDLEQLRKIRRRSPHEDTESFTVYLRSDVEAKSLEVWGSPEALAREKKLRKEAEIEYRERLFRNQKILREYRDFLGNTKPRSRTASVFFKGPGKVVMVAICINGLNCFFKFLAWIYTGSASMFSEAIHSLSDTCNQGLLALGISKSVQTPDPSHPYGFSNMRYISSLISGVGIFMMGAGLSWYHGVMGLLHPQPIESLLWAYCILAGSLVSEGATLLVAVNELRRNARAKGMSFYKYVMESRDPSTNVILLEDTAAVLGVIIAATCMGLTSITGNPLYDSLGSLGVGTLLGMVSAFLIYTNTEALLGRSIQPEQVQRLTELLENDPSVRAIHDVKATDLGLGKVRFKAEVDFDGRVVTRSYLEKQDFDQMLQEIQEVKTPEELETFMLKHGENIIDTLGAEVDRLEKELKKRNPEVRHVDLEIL
# UniProt Q9H1U9: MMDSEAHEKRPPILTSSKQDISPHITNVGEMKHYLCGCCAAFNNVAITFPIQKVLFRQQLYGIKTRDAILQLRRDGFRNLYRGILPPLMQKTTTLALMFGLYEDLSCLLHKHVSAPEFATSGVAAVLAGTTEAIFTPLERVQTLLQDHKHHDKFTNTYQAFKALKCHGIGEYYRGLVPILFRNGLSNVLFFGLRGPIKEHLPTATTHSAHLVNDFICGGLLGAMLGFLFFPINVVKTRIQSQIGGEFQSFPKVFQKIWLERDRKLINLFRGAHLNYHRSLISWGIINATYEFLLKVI
# This is one part of the list.
# Assays:
# Assay in all cases: log2 fold change, soluble protein after heating vs DMSO (PISA); higher = thermal stabilisation; K562 lysate, 10 uM; active = over 0.2 and 3.5 SD of the protein, either way, in both replicates (recomputed)
# [1] = compound: C=CC(=O)N1CCC[C@@H](n2nc(-c3ccc(Oc4ccccc4)cc3)c3c(N)ncnc32)C1 [ibrutinib]
# How it was run: (§1)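 The values are log-two fold changes in thermal stability compared with solvent controls and come from duplicates. They were obtained by TMTpro 16plex LC-MS/MS, with channel sums equalised, on the supernatant after 21,000xg for 90 min. That supernatant came from crude K562 extract at 1 mg/mL protein treated with 10 μM compound for 30 min, heated for 3 min across 48°C-58°C, pooled and brought to 0.5% NP-40 at 4°C.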
# [2] = compound: CC(=O)c1cnc2ccc(-c3cc(Cl)c(O)c(Cl)c3)nc2c1N[C@H]1CC[C@H](CN(C)C)CC1
# How it was run: as §1
# [3] = compound: CC(C)(C)Cn1c(N)nc2ccc(-c3[nH]c(C(C)(C)C)nc3-c3ccc(F)cc3)nc21 [ralimetinib]
# How it was run: as §1
# [4] = compound: CC(C)(O)CC(=O)NCCn1ccc2ncnc(Nc3ccc(Oc4cccc(C(F)(F)F)c4)c(Cl)c3)c21
# How it was run: as §1
# [5] = compound: CC(C)C1=C2N=C(C=C(N2N=C1)NCC3=CC=CC=C3)NCCCCCCN
# How it was run: as §1
# [6] = compound: CC1=C(C(CC(=O)N1)C2=CC=C(C=C2)C(F)(F)F)C(=O)NC3=C(C=C4C(=C3)C=NN4)F
# How it was run: as §1
# [7] = compound: CC1=C(C2=C(C=C1)C(=O)C3=CC=CC=C3N2CCCN)C
# How it was run: as §1
# [8] = compound: CC1=C(C=C(C=C1)NC(=O)C2=CC(=CC=C2)C(C)(C)C#N)NC3=CC4=C(C=C3)N=CN(C4=O)C
# How it was run: as §1
# [9] = compound: CC1=C(C=C(C=C1)NC(=O)C2=CC(=CC=C2)N(C)C)NC(=O)C3=CC=C(C=C3)O
# How it was run: as §1
# [10] = compound: CC1=CC=C(C=C1)SC2=C3C=C(SC3=CN=C2)C(=O)N
# How it was run: as §1
# [11] = compound: CCCS(=O)(=O)Nc1ccc(F)c(C(=O)c2c[nH]c3ncc(-c4ccc(Cl)cc4)cc23)c1F [vemurafenib]
# How it was run: as §1
# [12] = compound: CCCS(=O)(=O)Nc1ccc(F)c(C(=O)c2c[nH]c3ncc(Cl)cc23)c1F
# How it was run: as §1
# [13] = compound: CCN(CCCOc1ccc2c(Nc3cc(CC(=O)Nc4cccc(F)c4)[nH]n3)ncnc2c1)CCOP(=O)(O)O [barasertib]
# How it was run: as §1
# [14] = compound: CC[C@@H]1C(=O)N(C)c2cnc(Nc3ccc(C(=O)NC4CCN(C)CC4)cc3OC)nc2N1C1CCCC1
# How it was run: as §1
# [15] = compound: CC[C@@H]1C(=O)N(C)c2cnc(Nc3ccc(C(=O)N[C@H]4CC[C@H](N5CCN(CC6CC6)CC5)CC4)cc3OC)nc2N1C(C)C [volasertib]
# How it was run: as §1
# [16] = compound: CCn1c(C(=O)N(C2CC2)C2CC2)cc2c3c(ncn3C)c(Nc3cc(C)n(C)n3)nc21
# How it was run: as §1
# [17] = compound: CCn1cc(-c2ccnc3[nH]c(-c4cccc(CN(C)C)c4)cc23)c(-c2ccc(NC(=O)N(C)C)cc2)n1
# How it was run: as §1
# [18] = compound: CN1CCC(CNc2ccc3ncc(-c4cccc(OC(F)(F)F)c4)n3n2)CC1
# How it was run: as §1
# [19] = compound: CN1CCN(CCOc2cc(OC3CCOCC3)c3c(Nc4c(Cl)ccc5c4OCO5)ncnc3c2)CC1 [saracatinib]
# How it was run: as §1
# [20] = compound: CN1CCN(c2nc(C3=C(c4c[nH]c5ccccc45)C(=O)NC3=O)c3ccccc3n2)CC1 [sotrastaurin]
# How it was run: as §1
Target,log2 fold change [1],log2 fold change [2],log2 fold change [3],log2 fold change [4],log2 fold change [5],log2 fold change [6],log2 fold change [7],log2 fold change [8],log2 fold change [9],log2 fold change [10],log2 fold change [11],log2 fold change [12],log2 fold change [13],log2 fold change [14],log2 fold change [15],log2 fold change [16],log2 fold change [17],log2 fold change [18],log2 fold change [19],log2 fold change [20]
SLC25A10 isoform 2 (UniProt Q9UBX3),inactive: 0.004,inactive: -0.009,inactive: 0.035,inactive: -0.019,inactive: 0.009,inactive: 0.017,inactive: 0.013,inactive: 0.002,inactive: 0.009,inactive: 0.028,inactive: -0.026,inactive: 0.009,inactive: -0.001,inactive: -0.009,inactive: -0.009,inactive: 0.002,inactive: -0.035,inactive: 0.027,inactive: 0.021,inactive: 0.023
SLC35A4 (UniProt L0R6Q1),inactive: 0.035,inactive: -0.078,inactive: 0.046,inactive: -0.046,inactive: 0,inactive: -0.046,inactive: -0.046,inactive: 0.103,inactive: -0.001,inactive: -0.007,inactive: 0.013,inactive: -0.021,inactive: 0.123,inactive: 0.084,inactive: 0.061,inactive: 0.037,inactive: -0.225,inactive: 0.027,inactive: -0.012,inactive: -0.003
SLC38A5 (UniProt Q8WUX1),inactive: -0.016,inactive: 0.014,inactive: -0.001,inactive: -0.055,inactive: -0.016,inactive: 0.002,inactive: 0.021,inactive: 0.075,inactive: 0.017,inactive: -0.02,inactive: 0.02,inactive: 0.006,inactive: 0.05,inactive: -0.024,inactive: 0.01,inactive: -0.038,inactive: -0.172,inactive: 0.086,inactive: 0.031,inactive: 0.074
SLC25A6 (UniProt P12236),inactive: -0.029,inactive: -0.015,inactive: 0.03,inactive: -0.003,inactive: 0.031,inactive: 0.007,inactive: -0.001,inactive: 0.01,inactive: -0.007,inactive: 0.035,inactive: -0.012,inactive: 0.011,inactive: -0.033,inactive: -0.026,inactive: 0.041,inactive: -0.011,inactive: -0.113,inactive: 0.024,inactive: 0.006,inactive: 0.022
SLC25A20 (UniProt O43772),inactive: 0.02,inactive: 0.023,inactive: 0.032,inactive: -0.027,inactive: -0.004,inactive: -0.027,inactive: -0.001,inactive: 0.053,inactive: -0.003,inactive: -0.017,inactive: -0.021,inactive: 0.02,inactive: 0.011,inactive: 0.032,inactive: 0.039,inactive: -0.037,inactive: -0.066,inactive: 0.017,inactive: -0.038,inactive: 0.003
SLC39A10 (UniProt Q9ULF5),inactive: 0.045,inactive: -0.049,inactive: 0.05,inactive: 0.019,inactive: -0.027,inactive: 0.012,inactive: 0.027,inactive: -0.031,inactive: -0.009,inactive: -0.02,inactive: 0.023,inactive: -0.032,inactive: -0.007,inactive: 0.097,inactive: 0.087,inactive: 0.032,inactive: 0.019,inactive: 0.038,inactive: -0.003,inactive: 0.032
SLC6A9 isoform 2 (UniProt P48067),inactive: -0.01,inactive: 0.012,inactive: 0.006,inactive: -0.074,inactive: 0.054,inactive: 0.006,inactive: -0.017,inactive: 0,inactive: 0.045,inactive: -0.002,inactive: -0.072,inactive: -0.031,inactive: 0.032,inactive: 0.081,inactive: 0.029,inactive: -0.055,inactive: -0.063,inactive: 0.051,inactive: -0.004,inactive: 0.061
SLC25A12 (UniProt O75746),inactive: -0.018,inactive: -0.007,inactive: 0.006,inactive: -0.004,inactive: 0.002,inactive: -0.005,inactive: -0.004,inactive: -0.023,inactive: -0.015,inactive: 0.048,inactive: -0.006,inactive: 0.011,inactive: -0.026,inactive: 0.075,inactive: 0.037,inactive: -0.046,inactive: -0.052,inactive: 0.015,inactive: -0.012,inactive: -0.011
SLC38A9 (UniProt Q8NBW4),inactive: 0.15,inactive: -0.014,inactive: 0.01,inactive: -0.002,inactive: 0.028,inactive: 0.043,inactive: 0.034,inactive: -0.012,inactive: -0.011,inactive: -0.038,inactive: 0.107,inactive: 0.044,inactive: -0.064,inactive: 0.029,inactive: 0.035,inactive: -0.028,inactive: 0.066,inactive: 0.071,inactive: 0.054,inactive: 0.052
SLC25A24 (UniProt Q6NUK1),inactive: 0.02,inactive: -0.002,inactive: -0.009,inactive: -0.03,inactive: -0.022,inactive: -0.034,inactive: -0.003,inactive: 0.015,inactive: -0.029,inactive: -0.012,inactive: -0.024,inactive: -0.008,inactive: -0.015,inactive: 0.025,inactive: 0.019,inactive: 0.002,inactive: -0.028,inactive: -0.007,inactive: -0.005,inactive: 0.017
SLC25A1 (UniProt P53007),inactive: -0.028,inactive: -0.019,inactive: 0.004,inactive: 0.008,inactive: 0.026,inactive: -0.011,inactive: -0.012,inactive: 0.01,inactive: 0.026,inactive: 0.025,inactive: -0.017,inactive: 0.007,inactive: -0.029,inactive: 0.021,inactive: 0.013,inactive: -0.021,inactive: -0.041,inactive: 0.027,inactive: 0.003,inactive: 0.035
SLC35A2 isoform 4 (UniProt P78381),inactive: -0.049,inactive: 0,inactive: -0.034,inactive: 0.057,inactive: -0.036,inactive: 0.068,inactive: -0.005,inactive: 0.072,inactive: 0.061,inactive: 0.047,inactive: 0.106,inactive: -0.102,inactive: 0.012,inactive: 0.135,inactive: -0.044,inactive: 0.013,inactive: -0.343,inactive: 0.056,inactive: -0.059,inactive: -0.02
SLC30A5 (UniProt Q8TAD4),inactive: -0.055,inactive: 0.039,inactive: -0.079,inactive: -0.023,inactive: -0.041,inactive: -0.031,inactive: -0.024,inactive: -0.036,inactive: -0.01,inactive: -0.012,inactive: 0.067,inactive: 0.013,inactive: 0.017,inactive: -0.004,inactive: 0.043,inactive: 0.045,inactive: -0.119,inactive: 0.032,inactive: 0.053,inactive: 0.041
SLC30A9 (UniProt Q6PML9),inactive: 0.061,inactive: 0.002,inactive: -0.03,inactive: 0.064,inactive: 0.021,inactive: -0.033,inactive: 0.008,inactive: 0.017,inactive: -0.213,inactive: -0.009,inactive: -0.005,inactive: 0.024,inactive: 0.015,inactive: 0.07,inactive: 0.018,inactive: 0.056,active: -0.534,inactive: 0.079,inactive: 0.034,inactive: -0.056
SLC25A51 (UniProt Q9H1U9),inactive: 0.066,inactive: 0.034,inactive: 0.044,inactive: -0.059,inactive: -0.005,inactive: -0.052,inactive: 0.025,inactive: 0.146,inactive: -0.047,inactive: -0.125,inactive: -0.02,inactive: 0.222,inactive: 0.035,inactive: 0.052,inactive: -0.119,inactive: 0.037,inactive: -0.01,inactive: -0.057,inactive: -0.04,inactive: 0.01
SLC39A11 (UniProt Q8N1S5),inactive: -0.065,inactive: -0.008,inactive: -0.136,inactive: -0.042,inactive: -0.023,inactive: 0.051,inactive: 0.16,inactive: -0.074,inactive: -0.089,inactive: 0.001,inactive: -0.082,inactive: 0.073,inactive: -0.126,inactive: 0.067,inactive: 0.011,inactive: 0.028,inactive: -0.043,inactive: 0.147,inactive: -0.108,inactive: -0.009

# For reference, some entries already given:
Target,log2 fold change [1],log2 fold change [2],log2 fold change [3],log2 fold change [4],log2 fold change [5],log2 fold change [6],log2 fold change [7],log2 fold change [8],log2 fold change [9],log2 fold change [10],log2 fold change [11],log2 fold change [12],log2 fold change [13],log2 fold change [14],log2 fold change [15],log2 fold change [16],log2 fold change [17],log2 fold change [18],log2 fold change [19],log2 fold change [20]
SLC39A10 (UniProt Q9ULF5),inactive: 0.045,inactive: -0.049,inactive: 0.05,inactive: 0.019,inactive: -0.027,inactive: 0.012,inactive: 0.027,inactive: -0.031,inactive: -0.009,inactive: -0.02,inactive: 0.023,inactive: -0.032,inactive: -0.007,inactive: 0.097,inactive: 0.087,inactive: 0.032,inactive: 0.019,inactive: 0.038,inactive: -0.003,inactive: 0.032
SLC6A9 isoform 2 (UniProt P48067),inactive: -0.01,inactive: 0.012,inactive: 0.006,inactive: -0.074,inactive: 0.054,inactive: 0.006,inactive: -0.017,inactive: 0,inactive: 0.045,inactive: -0.002,inactive: -0.072,inactive: -0.031,inactive: 0.032,inactive: 0.081,inactive: 0.029,inactive: -0.055,inactive: -0.063,inactive: 0.051,inactive: -0.004,inactive: 0.061
SLC25A12 (UniProt O75746),inactive: -0.018,inactive: -0.007,inactive: 0.006,inactive: -0.004,inactive: 0.002,inactive: -0.005,inactive: -0.004,inactive: -0.023,inactive: -0.015,inactive: 0.048,inactive: -0.006,inactive: 0.011,inactive: -0.026,inactive: 0.075,inactive: 0.037,inactive: -0.046,inactive: -0.052,inactive: 0.015,inactive: -0.012,inactive: -0.011
